Read-outs that look alike come from different tables or passages of the source. Results are given in words; binding and its absence hold for the method and conditions named. In cells and extracts the contact can be indirect. These calls come from enrichment with a bait or labelling near it, and not all partners need be listed.

Protein sequences, listed by entry. Tags and fused reporters are not part of them. Lines headed by an entry give the natural chain unless they say otherwise; changes in a name come on top. Residues count along the entry.
UniProt P02649, residues 19-317: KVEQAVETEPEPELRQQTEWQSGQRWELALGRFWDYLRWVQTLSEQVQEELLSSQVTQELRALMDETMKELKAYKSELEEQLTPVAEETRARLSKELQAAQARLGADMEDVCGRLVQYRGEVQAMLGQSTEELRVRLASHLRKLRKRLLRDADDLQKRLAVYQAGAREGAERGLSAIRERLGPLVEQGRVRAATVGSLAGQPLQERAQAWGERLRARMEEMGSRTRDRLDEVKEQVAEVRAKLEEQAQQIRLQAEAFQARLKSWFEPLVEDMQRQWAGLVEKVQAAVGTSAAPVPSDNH
UniProt P07724, residues 25-608: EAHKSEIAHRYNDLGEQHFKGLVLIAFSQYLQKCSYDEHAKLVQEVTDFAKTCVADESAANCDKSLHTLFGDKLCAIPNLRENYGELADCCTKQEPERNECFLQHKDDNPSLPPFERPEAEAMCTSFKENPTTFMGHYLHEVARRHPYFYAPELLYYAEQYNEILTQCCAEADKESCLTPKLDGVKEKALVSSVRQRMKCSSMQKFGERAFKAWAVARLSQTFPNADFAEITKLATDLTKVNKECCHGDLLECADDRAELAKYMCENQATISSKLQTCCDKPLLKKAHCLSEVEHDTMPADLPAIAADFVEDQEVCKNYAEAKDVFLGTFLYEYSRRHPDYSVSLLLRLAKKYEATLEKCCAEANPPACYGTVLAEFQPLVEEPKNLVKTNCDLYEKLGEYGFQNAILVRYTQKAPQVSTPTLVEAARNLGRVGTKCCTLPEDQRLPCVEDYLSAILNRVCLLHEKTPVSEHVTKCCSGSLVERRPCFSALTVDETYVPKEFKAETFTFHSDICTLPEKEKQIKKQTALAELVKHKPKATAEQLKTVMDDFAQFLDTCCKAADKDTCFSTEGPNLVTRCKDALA
UniProt Q60932: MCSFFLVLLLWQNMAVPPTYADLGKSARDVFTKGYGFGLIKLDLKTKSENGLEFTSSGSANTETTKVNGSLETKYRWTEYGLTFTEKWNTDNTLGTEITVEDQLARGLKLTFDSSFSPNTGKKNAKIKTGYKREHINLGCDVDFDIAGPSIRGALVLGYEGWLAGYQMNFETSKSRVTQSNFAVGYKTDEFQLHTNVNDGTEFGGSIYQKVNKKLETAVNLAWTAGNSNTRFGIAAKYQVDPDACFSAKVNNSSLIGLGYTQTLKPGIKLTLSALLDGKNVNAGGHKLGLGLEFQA

Experiment [1] addresses human apolipoprotein E3 (APOE3) in APOE3 targeted replacement mouse liver (human) (UniProt P02649). Nature of the experiment: affinity purification with mass spectrometry; APOE co-IP from liver tissue lysates (NP40 lysis buffer) of two female APOE TR mice (1 x APOE3, 1 x APOE4) with two anti-APOE antibodies (sc-13521, sc-390925), Protein G Sepharose, 4 °C; four co-IPs analysed by LC-MS; control without antibody.

For experiment [2] the target is unchanged. The experiment is described as above. This is another data set of the same source.

Regarding “serum albumin, mouse liver (from UniProt P07724 25-608)”, in experiment [1], the binding result is listed as “binds”.
Still for that read-out and setting: with “voltage-dependent anion-selective channel 1 (VDAC1), mouse liver (from UniProt Q60932)” the entry was “binds”.

B1: branched-chain alpha-keto acid dehydrogenase subunit beta, mouse liver (protein, UniProt Q6P3A8 49-390)
chain: VAHFTFHPDPESLQYGQTQKMNLFQSITSALDNSLAKDPTAVIFGEDVAFGGVFRCTVGLRDKYGKDRVFNTPLCEQGIVGFGIGIAVTGATAIAEIQFADYIFPAFDQIVNEAAKYRYRSGDLFNCGSLTIRAPWGCVGHGALYHSQSPEAFFAHCPGIKVVIPRSPFQAKGLLLSCIEDKNPCIFFEPKILYRAAVEQVPVEPYKIPLSQAEVIQEGSDVTLVAWGTQVHVIREVASMAQEKLGVSCEVIDLRTIVPWDVDTVCKSVIKTGRLLISHEAPLTGGFASEISSTVQEECFLNLEAPISRVCGYDTPFPHIFEPFYIPDKWKCYDALRKMINY
Regarding B1, in experiment [2], the binding entry is reported as “binds”.

B2: branched-chain alpha-keto acid dehydrogenase (BCKD) complex subunit alpha (BCKDHA), mouse liver (protein, UniProt P50136 43-442)
chain: PSLDDKPQFPGASAEFVDKLEFIQPNVISGIPIYRVMDRQGQIINPSEDPHLPQEEVLKFYRSMTLLNTMDRILYESQREGRISFYMTNYGEEGTHVGSAAALERTDLVFGQYREAGVLMYRDYPLELFMSQCYGNVNDPGKGRQMPVHYGCKERHFVTISSPLATQIPQAVGAAYAAKRANANRIVICYFGEGAASEGDAHAGFNFAATLECPIIFFCRNNGYAISTPTSEQYRGDGIAARGPGYGIKSIRVDGNDVFAVYNATKEARRRAVAENQPFLIEAMTYRIGHHSTSDDSSAYRSVDEVNYWDKQDHPISRLRQYLLNQGWWDEEQEKAWRKQSRKKVMEAFEQAERKLKPNPSLLFSDVYQEMPAQLRRQQESLARHLQTYGEHYPLDHFEK
Regarding B2, in experiment [2], the binding entry was “binds”.

B3: leucine-rich repeat-containing protein 59, mouse liver (protein, UniProt Q922Q8 1-307)
chain: MTKAGSKGGNLRDKLDGNELDLSLSDLNEVPVKELAALPKATVLDLSCNKLSTLPSDFCGLTHLVKLDLSKNKLQQLPADFGRLVNLQHLDLLNNRLVTLPVSFAQLKNLKWLDLKDNPLDPVLAKVAGDCLDEKQCKQCANKVLQHMKAVQADQERERQRRLEVEREAEKKREAKQQAKEAKERELRKREKAEEKERRRKEYDAQKASKREQEKKPKKEANQAPKSKSGSRPRKPPPRKHTRSWAVLKVLLLLLLLCVAGGLVVCRVTGLHQQPLCTSVNTIYDNAVQGLRHHEILQWVLQTDSQQ
In the case of B3, the binding entry in experiment [2] is recorded as “binds”.

These data come from article PMC9905200.
